Measurements taken from patent publication US20250051578A1, “RHODAMINE-METHYLENE BLUE DERIVATIVE FLUORESCENT PROBE AND PREPARATION METHOD AND APPLICATION THEREOF” (Henan Polytechnic University, priority 2023, published 2025).

Legend:
[1] = Fluorescence detection of ATP by the probe in EtOH:PBS solution (selectivity and titration); details: probe 1×10^−5 mol/L, excitation 360 nm
[2] = Fluorescence detection of ClO^− by the probe in EtOH:PBS solution (selectivity and titration); details: probe 1×10^−5 mol/L, excitation 630 nm

Compound: CCN(CC)c1ccc2c(c1)Oc1cc(N(CC)CC)ccc1C21c2ccccc2C(=O)N1CCN1CCN(C(=O)N2c3ccc(N(C)C)cc3Sc3cc(N(C)C)ccc32)CC1
- detection limit for the ATP ([1]; EtOH:PBS pH=7.4, 5:95 v:v, emission 590 nm): 23.60 nM
- selectivity of fluorescence response among analytes (phosphates, thiols, nucleotides) ([1]; analytes 1×10^−2 mol/L, FIG. 4B): obvious responses only to the ClO^− and the ATP
- detection limit for the ClO^− ([2]; EtOH:PBS pH=7.4, 5:95 v:v, emission 680 nm): 0.90 nM
- selectivity of fluorescence response among analytes (anions, cations, thiols, ROS) ([2]; analytes 2.5×10^−4 mol/L, FIG. 4A): obvious responses only to the ClO^− and the ATP
